Measured values taken from publication PMC5378391, “Maltose binding protein-fusion enhances the bioactivity of truncated forms of pig myostatin propeptide produced in E. coli” (PLoS ONE, 2017).
No constants are given. Whether binding was seen depends on the method and setting. For some of these results: Binding calls can cover weak binding; strength is not graded here.

How the values were obtained:
[1] = molecular target: MBP-fused truncated pig MSTNpro containing residues 42-115 (pig) (UniProt O18831); test: pull-down; MBP-MSTNpro protein (480 nM) plus MSTN (48 nM) mixed with 50 uL amylose resin in 1 mL, 2 hr at room temperature; washed three times with column buffer; eluted in reducing SDS-PAGE loading buffer; Coomassie blue staining; both purified
[2] = molecular target: MBP-fused truncated pig MSTNpro containing residues 42-175 (pig) (UniProt O18831); test: as above
[3] = molecular target: MBP-fused truncated pig MSTNpro containing residues 42-175 (pig) (UniProt O18831); test: condition: only at 1 nM MBP-Pro42-175 with 6 nM MSTN; pull-down; as a2, but 1 nM MBP-Pro42-175 or MBP-Pro42-98 with 6 nM MSTN on amylose resin; immuno-blot against MSTN; both purified
[4] = molecular target: MBP-fused truncated pig MSTNpro containing residues 42-175 (pig) (UniProt O18831); test: pull-down; MSTN (6 nM) with 15, 30, 45 and 60 nM MBP-Pro42-175 or MBP-Pro42-98, or 60 nM MBP, on amylose resin; eluate immuno-blotted with monoclonal anti-MSTN antibody; both purified

- binding [1]: binds
- binding [2]: binds
- binding [3]: no binding
- binding [4]: binds
Substance: Myostatin (MSTN) (from UniProt O14793 267-375) (ligand)
